Out of some 350,000 compounds screened, about 220 (0.063%) were called active. This list was built around the results that the source calls inconclusive (neither active nor inactive); the mix of calls is not that of the screen. Calls follow the shape of the dose curve; as a rule, active = well fitted activation curve with a large enough effect; inconclusive = small, poorly fitted or top-dose-only effect; inactive = no such curve, though single readings can be large or run the other way. Where the call is inconclusive, the potency comes from a doubtful curve fit.
assay: qHTS for Activators of Integrin-Mediated Alleviation for Muscular Dystrophy; conditions: alpha7betagal myoblasts, beta-gal FDG fluorescence, 48 h; activation: at 38.3 µM (top of the series); also: nearly all actives have a fitted effect of over 60% in size;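 as to activation: 100% = response of the positive control SU9516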
Description: Integrins are a diverse family of transmembrane cell surface receptors that mediate interactions between cells and the extracellular matrix. These heterodimeric proteins are composed of alpha and beta subunits and the a7b1 interacts with laminin in the extracellular matrix and actin of the cell cytoskeleton. Both chains contribute to ligand binding, but the alpha chain mediates the specificity of the interaction. The alpha7beta1 integrin is a major laminin receptor in skeletal, cardiac and vascular smooth muscle. Mutations in the alpha7 integrin gene are responsible for muscular dystrophy in both humans and mice. The alpha7beta1 integrin is also a major modifier of muscle disease progression in various muscle diseases including Duchenne muscular dystrophy, Fukuyama muscular dystrophy and merosin deficient congenital muscular dystrophy type 1A. […] Transcriptional regulation of the alpha7 integrin gene is poorly understood and probably involves multiple transcription factors. The goal of identifying small molecules that enhance alpha7 integrin expression is two-fold: firstly, such molecules would help us gain insight into the complex transcriptional control of alpha7 integrin. It is known that alpha7 integrin expression is tightly controlled during various stages of development, disease and in response to external stimuli. The second goal of the project is to translate the above finding into a therapeutic strategy for muscular dystrophy. […] Thus this project aims to discover small molecule probes that would not only help in gaining a better understanding of the complex regulatory mechanism of alpha7 integrin expression, but also lead to development of pharmacological agents to fight muscular dystrophy. NIH Chemical Genomics Center [NCGC] NIH Molecular Libraries Probe Centers Network [MLPCN] MLPCN Grant: NS058429 Assay Submitter (PI): Dean Burkin, University of Nevada School of Medicine
A total of 250 alpha7betagal+/- myoblasts at passage 13 were dispensed using a mulitdrop from Thermo into black low base tissue culture treated microclear aurora plates in 6 ul media containing DMEM without phenol, 5% FBS, 1x GluMax and 1x Penicillin/Streptomycin. The plates were incubated 16-24 hr at 37C, 5% CO2, 95% humidity covered with low evaporation stainless steel lids from Kalypsys. Compounds were then dispensed using a Kalypsys pintool to deliver 23 nl/well compounds in DMSO (diluted into 6 uL resulting in a 1:260 dilution of compound). The control compound used was the cdk2 inhibitor SU9516 from Tocirs (found in the initial LOPAC screen). The plates were incubated for 48 hours at 37C, 5% CO2, 95% humidity using the same stainless steel lids. After incubation with compound, 5 ul of the media was aspirated using the Kalypsys washer/dispenser and 3 ul of the Mammalian Protein Extraction Reagent (MPER) lysis buffer (Thermo Fisher) was added. The plates were spun at 2000 rpms to remove bubbles and an initial capture was acquired on the Viewlux (Perkin Elmer) with exciation at 480 nm and emission at 540 nm for 25 seconds to omit any auto fluorescent compounds. The plates were then incubated for 10 minutes at room temperature. After incubation, 3 ul of 125 uM Fluorescein di-galactoside (FDG) (Marker Gene Technologies) diluted in PBS with 2 mM MgCl2 and 0.2% betamercaptoethanol (BME) was added, the plates were spun at 2000 rpms and incubated for 30 minutes at room temperature. The plates were again read on the Viewlux with exciation at 480 nm and emission at 540 nm for 25 seconds.
Potency is read from the fitted curve at half-maximal effect.

| Compound | activation | Potency |
| --- | --- | --- |
| CCOC(=O)C1(CCOc2ccccc2)CCN(Cc2ccccc2OC)CC1 | inactive: -49.4% |  |
| Cn1c(O)c(N=Nc2ccc(S(=O)(=O)N3CCOCC3)cc2)c(=O)n(C)c1=O | inactive: -2.52% |  |
| CC(C)(C)NC(=O)C1CC2CCCCC2CN1 (stereo not given) |  | inconclusive: 5.01 µM [activator, single point] |
| CCOP(=O)(OCC)C(NC(=O)c1cccc(C)c1)C(Cl)(Cl)Cl (stereo not given) | inactive: -30.5% |  |
| COc1cc2c(cc1C=O)OCO2 |  | inconclusive: 20 µM [activator, single point] |
| CN1CCN(CCOC2c3ccccc3CSc3ccc(Cl)cc32)CC1 (stereo not given) | inactive: -26.7% |  |
| C/C(Cl)=C/CC1(CN2CCCC2=O)C(=O)NC(=O)NC1=O |  | inconclusive: 3.55 µM [activator, partial curve, poor fit] |
| CC(=NCCN(C)C)c1c(O)n(Cc2ccccc2)c(=O)[nH]c1=O |  | inconclusive: 1.58 µM [activator, partial curve, poor fit] |
| CC(=NCc1ccco1)c1c(O)n(-c2ccccc2C)c(=O)[nH]c1=O |  | inconclusive: 10 µM [activator, partial curve, poor fit] |
| O=c1c(C=NCCN2CCNCC2)c(O)n(C2CCCCC2)c(=O)n1C1CCCCC1 | inactive: -47.8% |  |
| CC(C)N1CCN(Cc2ccc3c(c2)OCCO3)CC1CCO (stereo not given) |  | inconclusive: 1.41 µM [activator, single point] |
| CC1=CC2OC3CC4OC(=O)C=CC=CC(=O)OCCC(C)C(O)C(=O)OCC2(CC1)C4(C)C31CO1 (stereo not given) | inconclusive: -4.87% [activator] |  |
| COc1ccc(NC(=O)CN(C)S(=O)(=O)c2ccc3[nH]c(=O)oc3c2)cc1 |  | inconclusive: 2.82 µM [activator, single point] |
| CC(=Nc1ccc2c(c1)CCC2)c1c(O)n(C2CCCCC2)c(=O)[nH]c1=O |  | inconclusive: 1.58 µM [activator, full curve, poor fit] |
| CN(C)c1ccc(C2C3C=CC(C3)C2(C#N)C(=O)O)c(Br)c1 (stereo not given) |  | inconclusive: 11.2 µM [activator, single point] |
| COC(=O)C1=C(c2ccc(-c3ccccc3)c(F)c2)C[C@@H]2CC[C@H]1N2C(=O)NCC1CC1 | inactive: -8.24% |  |
| COC(=O)Cn1cc(C=C2C(=O)N(C)C(=O)N(C)C2=O)c2ccccc21 |  | inconclusive: 22.4 µM [activator, single point] |
| CCC(CC)NCc1c[nH]c2ccccc12 | inactive: -50.3% |  |
| C[C@]12CCC3C(CC[C@H]4C[C@@H](O)CC[C@]34C)C1=CC[C@@H]2O (stereo not given in full) | inactive: -6.69% |  |
| CC1(C)CC(n2[nH]c(=O)c3c2NC(=O)CSC3c2ccc(F)cc2)CCO1 (stereo not given) | inactive: -11.5% |  |

Copied from the list:
Value of Cn1c(O)c(N=Nc2ccc(S(=O)(=O)N3CCOCC3)cc2)c(=O)n(C)c1=O under activation: inactive: -2.52%
Value of CC(C)(C)NC(=O)C1CC2CCCCC2CN1 (stereo not given) under Potency: inconclusive: 5.01 µM [activator, single point]

Reference: PubChem BioAssay AID624291 (National Center for Advancing Translational Sciences (NCATS), 2012)
